Results: patent US20170088618A1
Results are given in words; binding and its absence hold for the method and conditions named. Some binding calls cover weakened binding; strength is not graded here.

Protein sequences, listed by entry. Tags and fused reporters are not part of them. Lines headed by an entry give the natural chain unless they say otherwise; changes in a name come on top.
UniProt Q15116: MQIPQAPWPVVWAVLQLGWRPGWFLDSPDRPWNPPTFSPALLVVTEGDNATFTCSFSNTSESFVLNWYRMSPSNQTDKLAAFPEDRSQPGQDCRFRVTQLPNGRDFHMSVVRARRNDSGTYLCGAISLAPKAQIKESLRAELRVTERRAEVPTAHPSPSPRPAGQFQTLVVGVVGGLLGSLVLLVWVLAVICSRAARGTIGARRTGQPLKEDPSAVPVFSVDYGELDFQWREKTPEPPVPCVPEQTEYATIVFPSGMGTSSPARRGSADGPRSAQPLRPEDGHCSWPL

Key:
[1] = biological target: human PD-1 extracellular domain (crystal structure) (human) (UniProt Q15116); test: crystal structure, 1.8 Å
[2] = biological target: human PD-1 extracellular domain (crystal structure) (human) (UniProt Q15116); test: crystal structure (figure legend)

binding [1]: binds
binding [2]: binds
B1: PD1AB-6 Fab (Fab, V domains shown)
VH: EVQLVQSGAEVKKPGATVKISCKASGFNIKDTYMHWVQQAPGKGLEWMGRIDPANGDRKYDPKFQGRVTITADTSTDTAYMELSSLRSEDTAVYYCARSGPVYYYGSSYVMDYWGQGTTVTVSS
VL: DIVMTQSPDSLAVSLGERATINCKSGQSVLYSSNQKNFLAWYQQKPGQPPKLLIYWASTRESGVPDRFSGSGSGTDFTLTISSLQAEDVAVYYCHQYLYSWTFGQGTKLEIKR
